According to patent publication US20250221947A1, “METHODS FOR TREATING A CORONAVIRUS INFECTION USING VALPROIC ACID AND DOCOSAHEXAENOIC ACID” (priority 2024, published 2025):
For at least one compound, name, drawing or mass did not settle the structure.

Tests used:
[1] = test system: HCoV-229E; experiment: HCoV-229E viral replication inhibition in MRC5 cells (antibody- or oligonucleotide-based dot blot); type: cell-based, human coronavirus HCoV-229E; conditions: MRC5, MOI 0.1, 48 hours drug, antibody-based assay
[2] = test system: SARS-CoV2; experiment: SARS-CoV2 replication in MRC5 cells, viral RNA by qRT-PCR; type: cell-based
[3] = test system: HDAC; experiment: HDAC inhibitory activity of DHA
[4] = test system: HCoV-229E; experiment: Viral RNA as % of total RNA by RNAseq in MRC5 cells infected with HCoV-229E; type: cell-based, human coronavirus HCoV-229E; conditions: 25 μM DHA added immediately after viral incubation

For `CC/C=C\C/C=C\C/C=C\C/C=C\C/C=C\C/C=C\CCC(=O)O` [DHA, docosahexaenoic acid], the “inhibition of HCoV-229E viral replication, agent alone” value [1] was “significant inhibition of viral replication”, the “inhibitory activity against SARS-CoV2” value ([2]; MRC5, MOI 0.1, VPA 0.5 mM, DHA 25 μM) was “substantial inhibitory activity” and the “effect of (additional) preincubation” value ([2]; VPA: additional preincubation up to 5 days, DHA: preincubation) was “preincubation did not improve the effect”. For the same compound, the HDAC inhibitory activity [3] was “did not have any HDAC inhibitory activity” and the “drop in viral RNA” value [4] was “⅓”.

`CC/C=C\C/C=C\C/C=C\C/C=C\C/C=C\CCCC(=O)O` [EPA, eicosapentaenoic acid] was tested, and the “inhibition of HCoV-229E viral replication, agent alone” value [1] was “significant inhibition of viral replication”.
